# Assay results from the supplement of paper PMC8728848.
# The other results are listed elsewhere or left out.
# B1: GS7807I-bvu-563-22-563 (Bacteroides vulgatus) (protein)
# chain: IFSSCTDDFEKLNTSNIQVDPADLPFAAQCTEPMTYCYPPQQNMFQFWTNLTIDLYGGYFMTPNGNFTNGDMGENRGHSGGMYENYYLHIFNNTRRIIAQCDASGERGLSGVMRIVQAYGTLMTTDAYGPIPYSSILSGENEVYFEFDSQKDLYKAMLEDLSTAITDISAMGADEIAKLKSFDCWCNGDKDLWVKIANTMKLRMALRLSKRETEAGNAGMNLKAIATEAAQNTLATVNKDILIDKSLENEMWLMFNWGDCGFNANLVTIMSGTKDPRQPLYMTLNTGDIKNEAGTTTVAANSQYLGIRFASGLPAKPNSWGNFSGWIQGNNGSSYSMPLPIMKAAEAYFLLAEAKLRWDIGSESVKNLYENGIRVSMTNELAYRGAYAGIKEYPEGAVDAYINGTSTQIDYTDPIKAELSTPAVNKLSVKWDESASNEEKLERIITQKWLALFPLSTEGWAEQRRTGYPRFFPAFVNESNGAVNTEEGVRRVIYSSQAYDANAKGVEGGIKLLDEENSSKFGISGDKGGTHLWWDNADKGNF
# Legend:
# Assay in all cases: glycan array binding signal (z-score within array); higher = stronger binding
# Conditions in all cases: glycan notation: IUPAC condensed, linker removed
# [1] = molecular target: Fuc(a1-2)[Gal(a1-3)]Gal(b1-4)GlcNAc(b1-2)Man(a1-3)[Fuc(a1-2)[Gal(a1-3)]Gal(b1-4)GlcNAc(b1-2)Man(a1-6)]Man(b1-4)GlcNAc(b1-4)[Fuc(a1-6)]GlcNAc
# How it was run: (§1)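 Negative Z-scores can be read as non-binding. The Z-score is calculated within each array and then averaged across arrays of one protein sequence at different concentrations or buffers and across linkers. Arrays, 3228 in all, were curated from the Consortium for Functional Glycomics database and kept only where the protein sequence was available.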
# [2] = molecular target: Fuc(a1-2)[Gal(a1-3)]Gal(b1-4)GlcNAc(b1-3)GalNAc
# How it was run: as §1
# [3] = molecular target: Fuc(a1-2)[Gal(a1-3)]Gal(b1-4)GlcNAc(b1-3)[Fuc(a1-2)[Gal(a1-3)]Gal(b1-4)GlcNAc(b1-6)]GalNAc
# How it was run: as §1
# [4] = molecular target: Fuc(a1-2)[Gal(a1-3)]Gal(b1-4)GlcNAc(b1-6)GalNAc
# How it was run: as §1
# [5] = molecular target: Fuc(a1-2)[Gal(a1-3)]Gal(b1-4)[Fuc(a1-3)]Glc
# How it was run: as §1
# [6] = molecular target: Fuc(a1-2)[Gal(a1-3)]Gal(b1-4)[Fuc(a1-3)]GlcNAc
# How it was run: as §1
# [7] = molecular target: Fuc(a1-2)[Gal(a1-3)]Gal(b1-4)[Fuc(a1-3)]GlcNAc(b1-3)GalNAc
# How it was run: as §1
# [8] = molecular target: Fuc(a1-2)[Gal(a1-4)]Gal(b1-4)GlcNAc
# How it was run: as §1
# [9] = molecular target: Fuc(a1-2)[GalNAc(a1-3)]Gal
# How it was run: as §1
# [10] = molecular target: Fuc(a1-2)[GalNAc(a1-3)]Gal(b1-3)GalNAc(a1-3)[Fuc(a1-2)]Gal(b1-4)GlcNAc
# How it was run: as §1
# [11] = molecular target: Fuc(a1-2)[GalNAc(a1-3)]Gal(b1-3)GalNAc(b1-3)Gal(a1-4)Gal(b1-4)Glc
# How it was run: as §1
# [12] = molecular target: Fuc(a1-2)[GalNAc(a1-3)]Gal(b1-3)GlcNAc
# How it was run: as §1
# [13] = molecular target: Fuc(a1-2)[GalNAc(a1-3)]Gal(b1-3)GlcNAc(b1-2)Man(a1-3)[Fuc(a1-2)[GalNAc(a1-3)]Gal(b1-3)GlcNAc(b1-2)Man(a1-6)]Man(b1-4)GlcNAc(b1-4)GlcNAc
# How it was run: as §1
# [14] = molecular target: Fuc(a1-2)[GalNAc(a1-3)]Gal(b1-3)GlcNAc(b1-2)Man(a1-3)[Fuc(a1-2)[GalNAc(a1-3)]Gal(b1-3)GlcNAc(b1-2)Man(a1-6)]Man(b1-4)GlcNAc(b1-4)[Fuc(a1-6)]GlcNAc
# How it was run: as §1
# [15] = molecular target: Fuc(a1-2)[GalNAc(a1-3)]Gal(b1-3)GlcNAc(b1-3)GalNAc
# How it was run: as §1
# [16] = molecular target: Fuc(a1-2)[GalNAc(a1-3)]Gal(b1-3)GlcNAc(b1-6)GalNAc
# How it was run: as §1
# [17] = molecular target: Fuc(a1-2)[GalNAc(a1-3)]Gal(b1-4)Glc
# How it was run: as §1
# [18] = molecular target: Fuc(a1-2)[GalNAc(a1-3)]Gal(b1-4)GlcNAc
# How it was run: as §1
# [19] = molecular target: Fuc(a1-2)[GalNAc(a1-3)]Gal(b1-4)GlcNAc(b1-2)Man
# How it was run: as §1
# [20] = molecular target: Fuc(a1-2)[GalNAc(a1-3)]Gal(b1-4)GlcNAc(b1-2)Man(a1-3)[Fuc(a1-2)[GalNAc(a1-3)]Gal(b1-4)GlcNAc(b1-2)Man(a1-6)]Man(b1-4)GlcNAc(b1-4)GlcNAc
# How it was run: as §1
# [21] = molecular target: Fuc(a1-2)[GalNAc(a1-3)]Gal(b1-4)GlcNAc(b1-2)Man(a1-3)[Fuc(a1-2)[GalNAc(a1-3)]Gal(b1-4)GlcNAc(b1-2)Man(a1-6)]Man(b1-4)GlcNAc(b1-4)[Fuc(a1-6)]GlcNAc
# How it was run: as §1
# [22] = molecular target: Fuc(a1-2)[GalNAc(a1-3)]Gal(b1-4)GlcNAc(b1-3)Gal(b1-4)GlcNAc
# How it was run: as §1
# [23] = molecular target: Fuc(a1-2)[GalNAc(a1-3)]Gal(b1-4)GlcNAc(b1-3)Gal(b1-4)GlcNAc(b1-3)Gal(b1-4)GlcNAc
# How it was run: as §1
# [24] = molecular target: Fuc(a1-2)[GalNAc(a1-3)]Gal(b1-4)GlcNAc(b1-3)GalNAc
# How it was run: as §1
# [25] = molecular target: Fuc(a1-2)[GalNAc(a1-3)]Gal(b1-4)GlcNAc(b1-3)[Fuc(a1-2)[GalNAc(a1-3)]Gal(b1-4)GlcNAc(b1-6)]GalNAc
# How it was run: as §1
# [26] = molecular target: Fuc(a1-2)[GalNAc(a1-3)]Gal(b1-4)GlcNAc(b1-6)GalNAc
# How it was run: as §1
# [27] = molecular target: Fuc(a1-2)[GalNAc(a1-3)]Gal(b1-4)[Fuc(a1-3)]GlcNAc
# How it was run: as §1
# [28] = molecular target: Fuc(a1-2)[GalNAc(a1-3)]Gal(b1-4)[Fuc(a1-3)]GlcNAc(b1-3)GalNAc
# How it was run: as §1
# [29] = molecular target: Fuc(a1-2)[GalNAc(a1-4)]Gal(b1-4)GlcNAc
# How it was run: as §1
# [30] = molecular target: Fuc(a1-2)[GalNAc(b1-3)]Gal
# How it was run: as §1
binder,measurement,setting,value
B1,glycan array binding signal (z-score),[1],-0.882
same,glycan array binding signal (z-score),[2],-0.837
same,glycan array binding signal (z-score),[3],0.034
same,glycan array binding signal (z-score),[4],-1.37
same,glycan array binding signal (z-score),[5],-0.863
same,glycan array binding signal (z-score),[6],-0.181
same,glycan array binding signal (z-score),[7],1.22
same,glycan array binding signal (z-score),[8],0.118
same,glycan array binding signal (z-score),[9],0.659
same,glycan array binding signal (z-score),[10],-0.514
same,glycan array binding signal (z-score),[11],-0.726
same,glycan array binding signal (z-score),[12],-0.317
same,glycan array binding signal (z-score),[13],0.967
same,glycan array binding signal (z-score),[14],0.144
same,glycan array binding signal (z-score),[15],-0.049
same,glycan array binding signal (z-score),[16],-0.731
same,glycan array binding signal (z-score),[17],-0.623
same,glycan array binding signal (z-score),[18],-0.373
same,glycan array binding signal (z-score),[19],0.088
same,glycan array binding signal (z-score),[20],0.159
same,glycan array binding signal (z-score),[21],0.209
same,glycan array binding signal (z-score),[22],0.151
same,glycan array binding signal (z-score),[23],-0.922
same,glycan array binding signal (z-score),[24],0.129
same,glycan array binding signal (z-score),[25],-0.774
same,glycan array binding signal (z-score),[26],-0.23
same,glycan array binding signal (z-score),[27],0.893
same,glycan array binding signal (z-score),[28],1.21
same,glycan array binding signal (z-score),[29],-1.16
same,glycan array binding signal (z-score),[30],-0.987

# Shown with bars between the fields: part of the list above.
binder | measurement | setting | value
B1 | glycan array binding signal (z-score) | [2] | -0.837
same | glycan array binding signal (z-score) | [3] | 0.034
